Measured values taken from the supplement of paper PMC10849652.
The other results are listed elsewhere or left out.

Protein sequences, listed by entry. Tags and fused reporters are not part of them. Lines headed by an entry give the natural chain unless they say otherwise; changes in a name come on top.
UniProt O43676, whole entry, looked up: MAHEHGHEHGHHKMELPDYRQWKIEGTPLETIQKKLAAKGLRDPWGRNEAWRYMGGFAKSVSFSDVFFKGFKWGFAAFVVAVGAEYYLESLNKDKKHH
UniProt O75489, whole entry, looked up: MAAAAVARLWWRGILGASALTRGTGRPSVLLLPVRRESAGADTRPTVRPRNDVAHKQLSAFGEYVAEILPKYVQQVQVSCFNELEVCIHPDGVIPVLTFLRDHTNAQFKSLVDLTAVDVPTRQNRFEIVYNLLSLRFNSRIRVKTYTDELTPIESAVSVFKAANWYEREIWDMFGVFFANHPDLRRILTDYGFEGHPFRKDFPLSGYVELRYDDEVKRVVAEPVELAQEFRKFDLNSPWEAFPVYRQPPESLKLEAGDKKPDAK
UniProt Q8WX92, whole entry, looked up: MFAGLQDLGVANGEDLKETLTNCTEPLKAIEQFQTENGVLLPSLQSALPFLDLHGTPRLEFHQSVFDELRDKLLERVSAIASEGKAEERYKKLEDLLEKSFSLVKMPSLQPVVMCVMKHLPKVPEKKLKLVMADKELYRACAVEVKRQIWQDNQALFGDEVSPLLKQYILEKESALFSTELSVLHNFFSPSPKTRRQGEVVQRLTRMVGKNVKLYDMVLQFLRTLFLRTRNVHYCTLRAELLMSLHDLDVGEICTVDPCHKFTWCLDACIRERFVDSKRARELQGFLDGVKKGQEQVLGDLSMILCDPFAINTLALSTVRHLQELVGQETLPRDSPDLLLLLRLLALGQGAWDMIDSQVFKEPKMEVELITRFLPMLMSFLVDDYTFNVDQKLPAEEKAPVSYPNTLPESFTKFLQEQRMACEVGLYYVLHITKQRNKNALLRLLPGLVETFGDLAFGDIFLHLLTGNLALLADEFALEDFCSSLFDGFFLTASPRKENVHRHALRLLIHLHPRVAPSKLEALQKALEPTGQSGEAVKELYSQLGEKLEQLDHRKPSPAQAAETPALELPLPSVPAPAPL
UniProt O43920, whole entry, looked up: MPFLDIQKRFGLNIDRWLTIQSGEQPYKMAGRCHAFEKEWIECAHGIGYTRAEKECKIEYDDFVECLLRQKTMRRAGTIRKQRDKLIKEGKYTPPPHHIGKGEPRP
UniProt O95644: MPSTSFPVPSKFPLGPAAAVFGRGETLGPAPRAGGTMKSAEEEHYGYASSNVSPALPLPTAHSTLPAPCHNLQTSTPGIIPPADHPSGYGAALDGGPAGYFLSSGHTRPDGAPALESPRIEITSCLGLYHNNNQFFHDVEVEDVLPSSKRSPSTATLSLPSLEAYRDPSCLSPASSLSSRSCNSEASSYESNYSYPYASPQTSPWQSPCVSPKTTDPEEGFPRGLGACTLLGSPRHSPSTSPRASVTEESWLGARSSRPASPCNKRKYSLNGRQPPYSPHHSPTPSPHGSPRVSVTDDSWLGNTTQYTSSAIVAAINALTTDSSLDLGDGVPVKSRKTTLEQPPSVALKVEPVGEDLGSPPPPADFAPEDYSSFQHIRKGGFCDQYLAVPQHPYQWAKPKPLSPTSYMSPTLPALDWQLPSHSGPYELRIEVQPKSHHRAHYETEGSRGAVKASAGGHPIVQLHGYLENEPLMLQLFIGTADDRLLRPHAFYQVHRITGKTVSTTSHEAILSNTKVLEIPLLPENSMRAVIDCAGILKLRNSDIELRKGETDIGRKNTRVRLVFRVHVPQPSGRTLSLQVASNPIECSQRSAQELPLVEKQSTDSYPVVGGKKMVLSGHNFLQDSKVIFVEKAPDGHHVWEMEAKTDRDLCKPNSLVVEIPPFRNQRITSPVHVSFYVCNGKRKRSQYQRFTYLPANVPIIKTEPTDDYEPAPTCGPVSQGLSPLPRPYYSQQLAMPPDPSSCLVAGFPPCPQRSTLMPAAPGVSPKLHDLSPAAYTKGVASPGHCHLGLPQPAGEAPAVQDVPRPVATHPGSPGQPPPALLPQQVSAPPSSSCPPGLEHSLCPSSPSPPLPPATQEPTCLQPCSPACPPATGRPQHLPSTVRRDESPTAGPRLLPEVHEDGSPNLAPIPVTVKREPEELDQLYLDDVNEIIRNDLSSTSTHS
UniProt Q96PU5: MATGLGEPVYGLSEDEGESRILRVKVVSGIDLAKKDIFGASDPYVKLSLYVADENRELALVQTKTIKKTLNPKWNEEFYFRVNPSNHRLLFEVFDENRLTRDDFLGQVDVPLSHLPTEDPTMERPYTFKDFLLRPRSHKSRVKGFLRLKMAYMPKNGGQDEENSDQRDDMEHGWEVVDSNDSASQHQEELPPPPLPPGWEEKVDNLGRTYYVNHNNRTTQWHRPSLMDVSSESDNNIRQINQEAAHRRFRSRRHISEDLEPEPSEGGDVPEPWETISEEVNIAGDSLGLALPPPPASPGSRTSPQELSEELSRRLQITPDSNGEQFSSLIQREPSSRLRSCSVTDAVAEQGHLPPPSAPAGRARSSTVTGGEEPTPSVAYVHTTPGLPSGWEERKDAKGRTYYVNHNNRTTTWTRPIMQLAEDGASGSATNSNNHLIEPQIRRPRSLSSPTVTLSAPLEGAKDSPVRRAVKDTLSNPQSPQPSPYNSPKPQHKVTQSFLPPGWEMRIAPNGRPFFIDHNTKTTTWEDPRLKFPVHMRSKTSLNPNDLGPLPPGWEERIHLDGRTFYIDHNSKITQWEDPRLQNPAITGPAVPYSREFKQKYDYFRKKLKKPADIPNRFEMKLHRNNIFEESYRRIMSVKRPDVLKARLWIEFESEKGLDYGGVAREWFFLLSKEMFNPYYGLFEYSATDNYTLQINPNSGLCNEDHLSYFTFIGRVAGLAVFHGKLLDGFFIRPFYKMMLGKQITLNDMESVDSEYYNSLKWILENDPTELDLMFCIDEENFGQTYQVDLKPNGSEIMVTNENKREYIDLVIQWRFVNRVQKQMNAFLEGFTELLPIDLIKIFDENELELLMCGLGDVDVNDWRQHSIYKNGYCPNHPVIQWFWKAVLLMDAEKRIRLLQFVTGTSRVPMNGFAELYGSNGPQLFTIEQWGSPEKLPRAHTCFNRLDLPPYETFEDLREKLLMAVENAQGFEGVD
UniProt Q16795, whole entry, looked up: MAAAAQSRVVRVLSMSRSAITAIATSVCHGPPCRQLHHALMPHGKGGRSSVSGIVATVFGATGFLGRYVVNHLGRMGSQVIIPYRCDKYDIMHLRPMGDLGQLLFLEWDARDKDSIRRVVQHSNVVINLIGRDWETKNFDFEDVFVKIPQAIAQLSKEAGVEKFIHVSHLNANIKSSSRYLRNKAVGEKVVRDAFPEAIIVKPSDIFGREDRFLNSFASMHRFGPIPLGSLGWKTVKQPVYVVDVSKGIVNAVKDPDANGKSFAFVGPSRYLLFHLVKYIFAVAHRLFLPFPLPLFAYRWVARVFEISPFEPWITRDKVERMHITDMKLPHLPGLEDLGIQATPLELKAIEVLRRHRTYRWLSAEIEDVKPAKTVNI
UniProt Q9H9Q4: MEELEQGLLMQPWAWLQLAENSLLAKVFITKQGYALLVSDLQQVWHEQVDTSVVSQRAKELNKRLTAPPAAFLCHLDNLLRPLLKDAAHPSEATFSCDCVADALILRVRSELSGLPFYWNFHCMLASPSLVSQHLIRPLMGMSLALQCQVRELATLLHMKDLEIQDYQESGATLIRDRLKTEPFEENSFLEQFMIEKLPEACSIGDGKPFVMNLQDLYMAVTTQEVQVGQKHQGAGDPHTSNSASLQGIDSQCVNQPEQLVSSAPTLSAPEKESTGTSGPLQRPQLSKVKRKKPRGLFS
UniProt Q86Y39, whole entry, looked up: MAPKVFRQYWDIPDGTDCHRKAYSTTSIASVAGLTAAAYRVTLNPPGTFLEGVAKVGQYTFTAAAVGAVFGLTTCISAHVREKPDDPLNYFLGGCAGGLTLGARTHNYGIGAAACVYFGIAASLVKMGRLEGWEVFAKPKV
UniProt P56181: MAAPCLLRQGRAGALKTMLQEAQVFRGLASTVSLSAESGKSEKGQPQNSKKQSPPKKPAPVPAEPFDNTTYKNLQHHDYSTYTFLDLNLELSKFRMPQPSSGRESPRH
UniProt Q9NVX2: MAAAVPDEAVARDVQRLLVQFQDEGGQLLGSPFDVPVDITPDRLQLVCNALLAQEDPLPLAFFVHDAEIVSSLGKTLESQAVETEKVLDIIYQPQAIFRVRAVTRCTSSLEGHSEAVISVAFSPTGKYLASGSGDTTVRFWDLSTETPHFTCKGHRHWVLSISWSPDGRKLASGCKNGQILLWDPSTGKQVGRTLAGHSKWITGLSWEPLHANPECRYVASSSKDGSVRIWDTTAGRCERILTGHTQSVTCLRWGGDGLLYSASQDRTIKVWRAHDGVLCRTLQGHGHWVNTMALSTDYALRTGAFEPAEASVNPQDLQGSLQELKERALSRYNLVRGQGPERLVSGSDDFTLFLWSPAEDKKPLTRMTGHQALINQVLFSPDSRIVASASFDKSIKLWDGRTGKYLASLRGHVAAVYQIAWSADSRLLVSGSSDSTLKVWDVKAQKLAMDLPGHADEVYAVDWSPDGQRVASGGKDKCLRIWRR
UniProt Q9UI09, whole entry, looked up: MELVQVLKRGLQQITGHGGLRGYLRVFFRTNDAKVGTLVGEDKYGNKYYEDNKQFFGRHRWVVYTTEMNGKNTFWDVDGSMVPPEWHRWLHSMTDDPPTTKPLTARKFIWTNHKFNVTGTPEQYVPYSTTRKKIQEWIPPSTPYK
UniProt Q15843, whole entry, looked up: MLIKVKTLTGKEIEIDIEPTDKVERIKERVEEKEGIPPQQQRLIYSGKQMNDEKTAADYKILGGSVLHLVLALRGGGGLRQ
UniProt Q9UGV2: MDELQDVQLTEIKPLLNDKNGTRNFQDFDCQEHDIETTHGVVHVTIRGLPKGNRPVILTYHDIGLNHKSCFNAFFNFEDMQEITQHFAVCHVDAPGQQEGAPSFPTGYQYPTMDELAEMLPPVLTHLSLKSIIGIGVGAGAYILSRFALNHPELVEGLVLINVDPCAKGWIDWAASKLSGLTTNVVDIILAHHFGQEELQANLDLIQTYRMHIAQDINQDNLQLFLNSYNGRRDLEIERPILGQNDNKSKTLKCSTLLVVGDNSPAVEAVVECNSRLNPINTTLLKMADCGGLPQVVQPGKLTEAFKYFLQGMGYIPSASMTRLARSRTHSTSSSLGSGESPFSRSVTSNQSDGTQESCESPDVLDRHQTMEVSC

Experiments:
Test in all cases: log2 fold change, soluble protein after heating vs DMSO (PISA); higher = thermal stabilisation; K562 lysate, 10 uM; active = over 0.2 and 3.5 SD of the protein, either way, in both replicates (recomputed)
alvocidib = compound: CN1CC[C@H](c2c(O)cc(O)c3c(=O)cc(-c4ccccc4Cl)oc23)[C@H](O)C1 [alvocidib]
How it was run: (§1)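 The values are log-two fold changes in thermal stability compared with solvent controls and come from duplicates. They were obtained by TMTpro 16plex LC-MS/MS, with channel sums equalised, on the supernatant after 21,000xg for 90 min. That supernatant came from crude K562 extract at 1 mg/mL protein treated with 10 μM compound for 30 min, heated for 3 min across 48°C-58°C, pooled and brought to 0.5% NP-40 at 4°C.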

Tubastatin A = compound: CN1CCc2c(c3ccccc3n2Cc2ccc(C(=O)NO)cc2)C1 [Tubastatin A]
How it was run: as §1

[1] = compound: CNC(=O)C1=CC=CC=C1NC2=NC(=NC=C2Cl)NC3=C(C=C(C=C3)N4CCOCC4)OC
How it was run: as §1

defactinib = compound: CNC(=O)c1ccc(Nc2ncc(C(F)(F)F)c(NCc3nccnc3N(C)S(C)(=O)=O)n2)cc1 [defactinib]
How it was run: as §1

[2] = compound: CNc1nc(-c2ccc3c(N)n[nH]c3c2)cc(N2C[C@@H](C(=O)NC3CCCCC3)CC[C@H]2C)n1
How it was run: as §1

encorafenib = compound: COC(=O)N[C@@H](C)CNc1nccc(-c2cn(C(C)C)nc2-c2cc(Cl)cc(NS(C)(=O)=O)c2F)n1 [encorafenib]
How it was run: as §1

[3] = compound: COC(=O)[C@H](CCSC)NC(=O)C1=C(C=C(C=C1)NC[C@H](CS)N)C2=CC=CC=C2
How it was run: as §1

alisertib = compound: COc1cc(Nc2ncc3c(n2)-c2ccc(Cl)cc2C(c2c(F)cccc2OC)=NC3)ccc1C(=O)O [alisertib]
How it was run: as §1

[4] = compound: COc1cc2nc(-c3cc(F)ccc3O)nc(N[C@@H]3CNC[C@H]3C(C)(C)O)c2cc1OC
How it was run: as §1

gefitinib = compound: COc1cc2ncnc(Nc3ccc(F)c(Cl)c3)c2cc1OCCCN1CCOCC1 [gefitinib]
How it was run: as §1

Measured: log2 fold change

NDUFB3 (UniProt O43676)
inactive: alvocidib 0.069 | Tubastatin A -0.037 | [1] 0.007 | defactinib 0 | [2] -0.014 | encorafenib -0.015 | [3] -0.044 | alisertib 0.018 | [4] -0.012 | gefitinib -0.021

NDUFS3 (UniProt O75489)
inactive: alvocidib 0.003 | Tubastatin A 0.022 | [1] -0.003 | defactinib 0.034 | [2] -0.014 | encorafenib -0.015 | [3] -0.034 | alisertib 0.009 | [4] -0.018 | gefitinib -0.017

NELFB isoform 2 (UniProt Q8WX92)
inactive: alvocidib -0.012 | Tubastatin A -0.057 | [1] 0.017 | defactinib -0.032 | [2] 0.015 | encorafenib 0.015 | [3] 0.017 | alisertib -0.009 | [4] -0.014 | gefitinib -0.018

NDUFS5 (UniProt O43920)
inactive: alvocidib 0.024 | Tubastatin A 0.029 | [1] 0.006 | defactinib 0.017 | [2] 0.053 | encorafenib 0.004 | [3] 0.048 | alisertib 0.003 | [4] 0.013 | gefitinib -0.042

NFATC1 (UniProt O95644)
inactive: alvocidib -0.024 | Tubastatin A -0.138 | [1] 0.124 | defactinib -0.012 | [2] -0.031 | encorafenib -0.071 | [3] 0.048 | alisertib -0.025 | [4] 0.001 | gefitinib 0.027

NEDD4L (UniProt Q96PU5)
inactive: alvocidib 0.024 | Tubastatin A 0.067 | [1] -0.022 | defactinib -0.013 | [2] -0.066 | encorafenib 0.019 | [3] -0.101 | alisertib 0.033 | [4] 0 | gefitinib -0.001

NDUFA9 (UniProt Q16795)
inactive: alvocidib 0.029 | Tubastatin A 0.158 | [1] -0.039 | defactinib -0.037 | [2] -0.044 | encorafenib -0.026 | [3] 0.068 | alisertib 0.038 | [4] -0.09 | gefitinib -0.037

NHEJ1 (UniProt Q9H9Q4)
inactive: alvocidib -0.059 | Tubastatin A 0.062 | [1] 0.033 | defactinib -0.124 | [2] 0.067 | encorafenib 0.033 | [3] 0 | alisertib 0.017 | [4] 0.022 | gefitinib -0.199

NDUFA11 (UniProt Q86Y39)
inactive: alvocidib 0.014 | Tubastatin A -0.02 | [1] 0.026 | defactinib 0.028 | [2] -0.016 | encorafenib 0.03 | [3] 0.026 | alisertib -0.019 | [4] 0.01 | gefitinib 0.021

NDUFV3 (UniProt P56181)
inactive: alvocidib 0.008 | Tubastatin A 0.033 | [1] 0.029 | defactinib 0.002 | [2] 0.06 | encorafenib 0.106 | [3] -0.218 | alisertib 0.108 | [4] 0.028 | gefitinib -0.126

NLE1 (UniProt Q9NVX2)
inactive: alvocidib -0.01 | Tubastatin A -0.026 | [1] -0.002 | defactinib -0.031 | [2] -0.032 | encorafenib 0.033 | [3] -0.056 | alisertib 0.01 | [4] -0.005 | gefitinib -0.051

NDUFA12 (UniProt Q9UI09)
inactive: alvocidib -0.043 | Tubastatin A 0.033 | [1] 0.022 | defactinib 0.01 | [2] -0.012 | encorafenib -0.02 | [3] 0.067 | alisertib -0.069 | [4] -0.079 | gefitinib 0.056

Pulled one by one from the entries so far (2):
NDUFB3 (UniProt O43676)
inactive: alvocidib 0.069 | Tubastatin A -0.037 | [1] 0.007 | defactinib 0 | [2] -0.014 | encorafenib -0.015 | [3] -0.044 | alisertib 0.018 | [4] -0.012 | gefitinib -0.021

NDUFA11 (UniProt Q86Y39)
inactive: alvocidib 0.014 | Tubastatin A -0.02 | [1] 0.026 | defactinib 0.028 | [2] -0.016 | encorafenib 0.03 | [3] 0.026 | alisertib -0.019 | [4] 0.01 | gefitinib 0.021

Continued.

NEDD8 (UniProt Q15843)
inactive: alvocidib 0.169 | Tubastatin A 0.132 | [1] 0.083 | defactinib 0.019 | [2] 0.037 | encorafenib 0.015 | [3] -0.062 | alisertib 0.021 | [4] -0.03 | gefitinib -0.148

NDRG3 (UniProt Q9UGV2)
inactive: alvocidib 0.015 | Tubastatin A -0.033 | [1] 0.018 | defactinib -0.041 | [2] 0.014 | encorafenib -0.003 | [3] 0.055 | alisertib -0.002 | [4] 0.005 | gefitinib -0.049
